PubChem BioAssay AID743121, NCATS – 2013
The deposit covers about 26,000 reagents; this is an unselected part. 167 of them (0.63%) count as active. 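Calls are per gene from RSA p-values that are not deposited; an individual active-marked siRNA can sensitise only weakly.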 The numbers tell different reagents against one gene apart. Reagent sequences are not shown.

Screen: 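Partners whose loss is lethal together with topoisomerase I blockade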 (primary screen)
System: MDA-MB-231 cells, a human breast cancer line
Reagents: single siRNA against human genes, 20 nM siRNA (0.8 pmol per well)
Time to read-out: 120 h (drug added 48 h after transfection, read 72 h later)
Treatment: camptothecin 20 nM (about EC30) for 72 h; vehicle 0.1% DMSO in parallel plates
Detection: 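CellTiter-Glo ATP signal, scaled to control siRNA as percent viability; sensitisation given as log2 of untreated divided by camptothecin-treated viability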
Direction: log2 vehicle/camptothecin viability: higher = stronger sensitisation to camptothecin; viability with camptothecin and viability without drug: higher = more viable cells
Hit rule: 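Each gene scored by redundant siRNA activity (RSA) over its individual siRNA ratios; a gene is called active at p < 0.001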

gene knocked down	siRNA no.	log2 vehicle/camptothecin viability	viability with camptothecin (% of control)	viability without drug (% of control)	Outcome
TPSD1 (GeneID 23430)	1	-0.0715	88.4	84.2	inactive
TPSD1 (GeneID 23430)	2	-0.254	80.1	67.2	inactive
TPSD1 (GeneID 23430)	3	0.562	45.5	67.2	inactive
TPSD1 (GeneID 23430)	4	-0.395	72.8	55.4	inactive
IPO5 (GeneID 3843)	1	-0.191	88.8	77.8	inactive
IPO5 (GeneID 3843)	2	0.113	94.7	102	inactive
IPO5 (GeneID 3843)	3	0.0687	24.8	26	inactive
IPO5 (GeneID 3843)	4	0.0292	79.6	81.2	inactive
GDF7 (GeneID 151449)	1	-0.205	73.8	64	inactive
GDF7 (GeneID 151449)	2	-0.119	112	103	inactive
GDF7 (GeneID 151449)	3	0.838	23.7	42.4	inactive
GDF7 (GeneID 151449)	4	-0.0103	38.2	37.9	inactive
RYR2 (GeneID 6262)	1	0.28	63.9	77.6	inactive
RYR2 (GeneID 6262)	2	-0.311	81.9	66	inactive
RYR2 (GeneID 6262)	3	0.447	59.8	81.6	inactive
RYR2 (GeneID 6262)	4	-0.131	96.5	88.1	inactive
XPOT (GeneID 11260)	1	-0.38	61.9	47.5	inactive
XPOT (GeneID 11260)	2	-0.311	46.8	37.7	inactive
XPOT (GeneID 11260)	3	-0.215	120	103	inactive
XPOT (GeneID 11260)	4	-0.3	88.1	71.6	inactive
PLCB4 (GeneID 5332)	1	-0.0436	89.3	86.7	inactive
PLCB4 (GeneID 5332)	2	-0.128	101	92.1	inactive
PLCB4 (GeneID 5332)	3	0.0198	89.3	90.6	inactive
BLTP1 (GeneID 84162)	1	-0.0258	113	111	inactive
BLTP1 (GeneID 84162)	2	-0.249	102	86.1	inactive
BLTP1 (GeneID 84162)	3	-0.0486	125	121	inactive
BLTP1 (GeneID 84162)	4	-0.106	103	95.6	inactive
BLTP1 (GeneID 84162)	5	-0.18	106	93.8	inactive
BLTP1 (GeneID 84162)	6	0.106	106	114	inactive
BLTP1 (GeneID 84162)	7	-0.264	97	80.7	inactive
BLTP1 (GeneID 84162)	8	-0.225	88.5	75.8	inactive
NETO1 (GeneID 81832)	1	-0.273	86.7	71.7	inactive
NETO1 (GeneID 81832)	2	0.0476	75.4	78	inactive
NETO1 (GeneID 81832)	3	-0.202	52.1	45.3	inactive
NETO1 (GeneID 81832)	4	-0.131	73.8	67.4	inactive
FHL2 (GeneID 2274)	1	-0.56	65.4	44.3	inactive
FHL2 (GeneID 2274)	2	-0.0105	115	114	inactive
FHL2 (GeneID 2274)	3	-0.844	73.8	41.1	inactive
FHL2 (GeneID 2274)	4	-0.182	78.3	69	inactive
KDM5B (GeneID 10765)	1	0.0353	107	110	inactive
KDM5B (GeneID 10765)	2	0.016	107	108	inactive
KDM5B (GeneID 10765)	3	0.0924	80.8	86.1	inactive
KDM5B (GeneID 10765)	4	-0.446	139	102	inactive
MARCHF1 (GeneID 55016)	1	0.216	79.8	92.7	inactive
MARCHF1 (GeneID 55016)	2	-0.105	101	93.6	inactive
MARCHF1 (GeneID 55016)	3	-0.131	70.2	64.1	inactive
MARCHF1 (GeneID 55016)	4	-0.0759	107	102	inactive
TPK1 (GeneID 27010)	1	0.0603	68.6	71.5	inactive
TPK1 (GeneID 27010)	2	-0.175	107	94.4	inactive
TPK1 (GeneID 27010)	3	-0.654	81.4	51.7	inactive
TPK1 (GeneID 27010)	4	0.2	57.1	65.6	inactive
APH1A (GeneID 51107)	1	0.251	32	38	inactive
APH1A (GeneID 51107)	2	-0.554	115	78.6	inactive
APH1A (GeneID 51107)	3	-0.826	65.1	36.8	inactive
APH1A (GeneID 51107)	4	0.454	56.5	77.4	inactive
APH1A (GeneID 51107)	5	0.0363	59.5	61	inactive
APH1A (GeneID 51107)	6	-0.0703	47.3	45.1	inactive
APH1A (GeneID 51107)	7	-0.467	101	73.2	inactive
APH1A (GeneID 51107)	8	0.0585	37.9	39.5	inactive
KCNMB1 (GeneID 3779)	1	-0.67	71	44.6	inactive
KCNMB1 (GeneID 3779)	2	-0.0636	89.7	85.8	inactive
KCNMB1 (GeneID 3779)	3	-0.219	61.7	53	inactive
KCNMB1 (GeneID 3779)	4	-0.0556	96.9	93.2	inactive
KCNN2 (GeneID 3781)	1	-0.372	27.3	21.1	inactive
KCNN2 (GeneID 3781)	2	-0.262	118	98.5	inactive
KCNN2 (GeneID 3781)	3	-0.389	86.1	65.7	inactive
KCNN2 (GeneID 3781)	4	-0.496	55.4	39.3	inactive
C1R (GeneID 715)	1	-0.107	21.8	20.3	inactive
C1R (GeneID 715)	2	-0.754	75.9	45	inactive
C1R (GeneID 715)	3	0.382	32.1	41.8	inactive
C1R (GeneID 715)	4	-0.354	65.3	51.1	inactive
LCMT2 (GeneID 9836)	1	-0.083	95.9	90.5	inactive
LCMT2 (GeneID 9836)	2	0.267	80.2	96.5	inactive
LCMT2 (GeneID 9836)	3	-0.569	61.7	41.6	inactive
LCMT2 (GeneID 9836)	4	-0.193	77.1	67.5	inactive
GRIN2B (GeneID 2904)	1	-0.512	47.3	33.1	inactive
GRIN2B (GeneID 2904)	2	-0.0436	75.6	73.3	inactive
GRIN2B (GeneID 2904)	3	0.0999	18.7	20	inactive
GRIN2B (GeneID 2904)	4	-0.336	102	80.4	inactive
P2RY6 (GeneID 5031)	1	0.204	44.4	51.2	inactive
P2RY6 (GeneID 5031)	2	-0.0194	58.4	57.6	inactive
P2RY6 (GeneID 5031)	3	-0.237	68	57.6	inactive
P2RY6 (GeneID 5031)	4	-0.311	84.2	67.9	inactive
TTPA (GeneID 7274)	1	-0.36	64.9	50.5	inactive
TTPA (GeneID 7274)	2	-0.105	102	95.2	inactive
TTPA (GeneID 7274)	3	-0.581	75.3	50.4	inactive
UIMC1 (GeneID 51720)	1	-0.245	118	99.9	inactive
UIMC1 (GeneID 51720)	2	-0.324	119	95.1	inactive
UIMC1 (GeneID 51720)	3	-0.182	59.4	52.3	inactive

A portion of the results above, for reference:
gene knocked down	siRNA no.	log2 vehicle/camptothecin viability	viability with camptothecin (% of control)	viability without drug (% of control)	Outcome
GDF7 (GeneID 151449)	2	-0.119	112	103	inactive
GDF7 (GeneID 151449)	3	0.838	23.7	42.4	inactive
GDF7 (GeneID 151449)	4	-0.0103	38.2	37.9	inactive
RYR2 (GeneID 6262)	1	0.28	63.9	77.6	inactive
RYR2 (GeneID 6262)	2	-0.311	81.9	66	inactive
RYR2 (GeneID 6262)	3	0.447	59.8	81.6	inactive
